Assay results as given in ChEMBL document CHEMBL4680353, “Synthesis, anticancer activity and molecular docking studies of N-deacetylthiocolchicine and 4-iodo-N-deacetylthiocolchicine derivatives” (Bioorg Med Chem, 2021).

Experiments:
LoVo = assay: Antiproliferative activity against human LoVo cells incubated for 72 hrs by SRB assay; type: functional, cell-based
MCF7 = assay: Antiproliferative activity against human MCF-7 cells incubated for 72 hrs by SRB assay; conditions: MCF7, 72 h
A549 = assay: Antiproliferative activity against human A549 cells incubated for 72 hrs by SRB assay; type: functional, cell-based; conditions: A549, 72 h
[1] = Resistance index, ratio of IC50 for antiproliferative activity against human Lovo/DX cells to IC50 for antiproliferative activity against human LoVo cells; type: functional
cells = type: functional, cell-based; conditions: Homo sapiens, LoVo/DX, 72 h
BALB/3T3 = assay: Antiproliferative activity against mouse BALB/3T3 cells incubated for 72 hrs by SRB assay; type: ADME, cell-based; conditions: BALB/3T3, 72 h
[2] = Antiproliferative activity against human ALL5 cells incubated for 120 hrs followed by MTT addition further incubated for 48 hrs; type: functional, cell-based

COc1cc2c(c(OC)c1OC)-c1ccc(SC)c(=O)cc1[C@@H](N)CC2
IC50 (LoVo): 16.9 nM
IC50 (MCF7): 14.2 nM
IC50 (A549): 24.1 nM
Ratio IC50 [1]: 8.6
IC50 (cells): 145 nM
IC50 (BALB/3T3): 223 nM
IC50 [2]: 16.3 nM
